We go through 34 compounds from PubChem BioAssay AID2685 (National Center for Advancing Translational Sciences (NCATS), 2010).

Some of the results follow. Shown are side measurements of this screen, not its main read-out; they come without a call. The list favours compounds with an active or inconclusive main result. Words in brackets tell the shape of the fitted curve; partial curves, single points and poor fits give uncertain potencies.

A short description of the test: qHTS Assay for Lipid Storage Modulators in Drosophila S3 Cells.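 On cell number change: cells counted by Cell Tracker Red CMTPX staining in the red channel.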 The settings on record: BODIPY lipid droplet fluorescence, 18-24 h; for cell number change: measured here: cell count max response, cells fed with added oleic acid. The procedure, abridged: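 Drosophila S3 cells got compounds at several concentrations plus oleic acid (400 uM solution). Laser-scanning cytometry with 488 nm excitation read lipid droplets at 500-530 nm and cells at 575-640 nm. Percent activity was relative to 20 uM Triacsin C.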
(qHTS replaces the single test concentration by a dilution series.)

[1] abbreviates: measured here: cell number channel AC50, cells fed with added oleic acid.
[2] abbreviates: measured here: lipid fluorescence (Fed channel) AC50, cells fed with added oleic acid.

Turning to `CCn1c2ccccc2c2cc(NC(=O)C(C)OC(=O)c3ccc(NC(=O)CC#N)cc3)ccc21` (stereo not given), the cell number change was -37.8%. Moreover, the half-maximal activity concentration (AC50) under setting [1] is 29.1 µM [falling, single point]. For the same compound, the AC50 under setting [2] is 0.0651 µM [rising, full curve, poor fit].

Take `O=C(CNC1=NCCC1)c1ccc2c(c1)OCCO2`: the cell number change is -0.98%. For the same compound, the half-maximal activity concentration (AC50) under setting [2] is 0.13 µM [falling, full curve].

Turning to `Cc1ccc(/C(O)=C2\C(=O)C(=O)N(CC(C)O)C2c2cccc(F)c2)cc1` (stereo not given), the cell number change was determined as 23.2%.

Regarding `O=C(CN1C2CCC1CC(NC(=O)NC1CCCCC1)C2)NC1CC1` (stereo not given), the cell number change is -15.7%. For the same compound, the half-maximal activity concentration (AC50) under setting [1] is 2.91 µM [falling, partial curve]. Under setting [2], the half-maximal activity concentration (AC50) is 3.26 µM [falling, partial curve, poor fit].

Turning to `O=c1[nH]cccc1-c1nc2ccccc2n1Cc1ccc(Cl)cc1`, the cell number change is 10%. Also, the AC50 under setting [2] is 0.291 µM [rising, single point].

`COCCCn1c(C)c(C(C)=O)cc(NC(=O)c2ccccc2)c1=O`: the cell number change is 22%.

As to `O=C(/C=C/c1ccc([N+](=O)[O-])cc1)N1CCN(S(=O)(=O)c2cccs2)CC1`, the cell number change was -38.7%. Further, the half-maximal activity concentration (AC50) under setting [1] is 29.1 µM [falling, single point]. The AC50 under setting [2] was 29.1 µM [falling, single point].

With `Cn1ccnc1SCC(=O)Nc1ccc([N+](=O)[O-])cn1`, the cell number change was 2.76%. Moreover, the AC50 under setting [2] is 0.58 µM [falling, single point].

As to `CCCCOc1ccc(N(CC(=O)NC(C)(C)C)C(=O)CCC(=O)Nc2nccs2)cc1`, the cell number change worked out at 10.4%. For the same compound, the AC50 under setting [2] was 0.461 µM [falling, single point].

Regarding `C(#Cc1ccccc1)C[N+]1(CC#Cc2cccc3ccccc23)CCCC1`, the cell number change is -59%. The half-maximal activity concentration (AC50) under setting [1] was 32.6 µM [falling, single point]. In addition, under setting [2], the AC50 was 23.1 µM [falling, partial curve].

As to `CC1(C(=O)N2CCC(CC3CC(c4ccc(Cl)cc4)=NO3)(C(=O)NCC3CCCCC3)CC2)CC1` (stereo not given), the cell number change was found to be 23.6%.

`S=C(Nc1ccc2c(c1)OCO2)Nc1ccc2c(c1)OCO2`: the cell number change was 9.62%. For the same compound, the half-maximal activity concentration (AC50) under setting [2] was 25.9 µM [rising, partial curve, poor fit].

For the compound `COc1cc(/C=C/C(=O)O)cc(OC)c1OC`, the cell number change is -36.5%. Also, the concentration at half-maximal activity (AC50) under setting [2] was 0.116 µM [falling, full curve].

For the compound `Cc1ccc(C)c(N2CCN(c3nnnn3-c3ccccc3)CC2)c1`, the cell number change is 32.2%. Further, under setting [1], the AC50 is 0.13 µM [rising, full curve]. Also, under setting [2], the AC50 was 0.206 µM [rising, full curve].

As to `CC(C)c1ccc(OCC(=O)N2CCN(c3ccccn3)CC2)c(Br)c1`, the cell number change was -2.48%. In addition, the AC50 under setting [2] was 0.58 µM [rising, single point].

As to `CC(C)(C)OC(=O)CC[C@@H](C(=O)N1CCN(C(=O)OC(C)(C)C)CC1)n1cc(C(Cc2ccc(O)cc2)NC(=O)OC(C)(C)C)nn1` (stereo not given in full), the cell number change is -13.3%. Under setting [1], the AC50 is 0.731 µM [falling, partial curve, poor fit]. In addition, the half-maximal activity concentration (AC50) under setting [2] was 0.82 µM [falling, full curve, poor fit].

On to `Cc1cc(NC(=O)CN2C(=O)NC(Cc3ccccc3)C2=O)no1` (stereo not given), for which the cell number change is -67%. Further, the AC50 under setting [1] was 25.9 µM [falling, single point].

In the case of `CCOc1ccc(OCC)c(NS(=O)(=O)c2cccc3nsnc23)c1`, the cell number change is -18.2%. The AC50 under setting [2] is 0.0259 µM [rising, full curve].

Regarding `CC1CC(C)(C)N(C(=O)NC2CCCCC2)c2ccccc21` (stereo not given), the cell number change amounted to 23.1%. In addition, the half-maximal activity concentration (AC50) under setting [2] is 4.11 µM [rising, full curve, poor fit].

In the case of `CCC(C)c1ccccc1N1CC(C(=O)N2CCN(S(=O)(=O)c3cccc([N+](=O)[O-])c3)CC2)CC1=O` (stereo not given), the cell number change is -68%. For the same compound, the AC50 under setting [1] is 18.4 µM [falling, partial curve, poor fit].

`COc1ccc(C(CC(=O)O)NC(=O)COc2ccccc2)cc1OC` (stereo not given): the cell number change came to 148%. The AC50 under setting [1] was 23.1 µM [rising, single point].

On to `Cc1cc(Cl)ccc1NC(=S)NCCc1ccc(Cl)cc1`, for which the half-maximal activity concentration (AC50) under setting [2] was 4.11 µM [falling, full curve, poor fit].

Regarding `COc1ccc(CC(=O)Nc2cccc3ncccc23)cc1OC`, the cell number change was 5.19%. For the same compound, the AC50 under setting [1] is 6.51 µM [rising, single point]. Also, under setting [2], the concentration at half-maximal activity (AC50) is 6.51 µM [rising, single point].

`CCC(C)C(=O)Nc1nc(C)c(-c2csc(Nc3ccccc3OC)n2)s1` (stereo not given): the cell number change was -28.9%. In addition, the AC50 under setting [2] is 6.51 µM [falling, full curve, poor fit].

For the compound `CCOC(=O)c1ccc(NC(=S)Nc2cccc(C)n2)cc1`, the cell number change was -39.4%. The half-maximal activity concentration (AC50) under setting [1] is 29.1 µM [falling, single point]. Further, the AC50 under setting [2] is 0.651 µM [falling, full curve, poor fit].

`COc1cccc(/C=N/n2cnc3cc(C)c(C)cc32)c1OC`: the cell number change was -22.5%. The AC50 under setting [2] is 32.6 µM [falling, single point].

As to `O=C(Nc1nc(-c2ccc(Cl)cc2Cl)cs1)C1CCCO1` (stereo not given), the cell number change is 20.4%. For the same compound, under setting [2], the half-maximal activity concentration (AC50) is 4.11 µM [rising, full curve, poor fit].

Regarding `CCOc1cc2[nH]c(=S)n(Cc3ccc(C(=O)N4CCN(C)CC4)cc3)c(=O)c2cc1OCC`, the cell number change was -23.6%. In addition, the half-maximal activity concentration (AC50) under setting [2] is 4.11 µM [rising, partial curve].

As for `Cc1cc(C)c2c(=O)n(CC(=O)Nc3ccc(Cl)cc3)sc2n1`, the cell number change is -61.1%. Moreover, the AC50 under setting [1] was 32.6 µM [falling, partial curve, poor fit]. The half-maximal activity concentration (AC50) under setting [2] is 18.4 µM [falling, partial curve].

Take `COc1cccc(/C(C)=N/Nc2ccc(S(=O)(=O)N3CCCCC3)cn2)c1`: the cell number change is -14%. Also, under setting [2], the AC50 was 32.6 µM [falling, single point].

Regarding `CN=c1sc2ccccc2n1CC(O)c1ccccc1` (stereo not given), the cell number change is -22.8%. Also, the concentration at half-maximal activity (AC50) under setting [1] was 0.164 µM [falling, full curve, poor fit]. For the same compound, the AC50 under setting [2] is 0.146 µM [falling, full curve, poor fit].

For the compound `O=C(Oc1ccccc1O)c1cccc2ccccc12`, the cell number change was -50.7%. Under setting [1], the concentration at half-maximal activity (AC50) was 1.03 µM [falling, full curve, poor fit]. In addition, the AC50 under setting [2] is 1.16 µM [falling, full curve].

Take `Cc1nn(Cc2ccccc2)c2sc(C(=O)NCc3cccnc3)cc12`: the cell number change is -21.6%.

`CC(NC(=O)c1cc2cc([N+](=O)[O-])ccc2oc1=O)C1CCCO1` (stereo not given): the cell number change is 14.8%. Besides, under setting [1], the half-maximal activity concentration (AC50) is 0.461 µM [falling, single point]. The AC50 under setting [2] was 18.4 µM [rising, single point].

Broadly, the AC50 is the midpoint of the concentration-response curve, whichever way the signal moves. Low values mean greater potency, high ones weaker potency.
